# Reference: PubChem BioAssay AID1347076 (National Center for Advancing Translational Sciences (NCATS), 2019)
# The campaign covered roughly 400,000 compounds. About 13,000 (3.2%) were called active. The inconclusive results got no clear call from the source; some entries with a clear call stand among them for comparison. Calls come from the whole dose curve; as a rule, active = well fitted cell-killing curve with a large enough effect; inconclusive = small, poorly fitted or top-dose-only effect, or effect the other way; inactive = flat fitted curve, though single readings scatter. Potencies beside an inconclusive call are fits to weak or partial responses and may not hold up.
# Test: qHTS assay for MDR1-selective chemotherapeutics: Primary screen using the drug-selected MDR subline cells KB-V1; note: nearly all actives have a fitted effect of over 60% in size
# Settings: KB-V1 MDR cells viability, CellTiter-Glo, 72 h; activity change, negative = cytotoxicity: at 46.1 µM (top of the series)
# How it was run: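 Cytotoxicity via CellTiter-Glo luminescence after 72 h compound exposure at 37 degrees C. Cells: drug-selected KB-V1 line, DMEM phenol-red free plus 10% FBS. Compounds tested at multiple concentrations; normalized data fitted to concentration-effect curves.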
# % is set by controls: 0 for no effect and ±100 for the full control effect; potency is the fitted concentration of half-maximal effect.
Compound,"activity change, negative = cytotoxicity",Potency
COCCN(C(=O)c1ccc(N(C)S(=O)(=O)c2ccc(C)cc2)cc1)c1c(N)n(CC(C)C)c(=O)[nH]c1=O,inconclusive: -1.71%,–
CC1CCN(C(C)C(=O)Nc2cc(S(=O)(=O)N3CCCCC3)ccc2Cl)CC1 (stereo unspecified),–,active: 14.6 µM
Cc1ccc(NC(=O)c2cccc(OCc3c(C)noc3C)c2)cc1,–,"inconclusive: 7.94 µM [cytotoxic, partial curve]"
O=C(Nc1ccc(S(=O)(=O)NC2=NCCCCC2)cc1)c1ccc(C(F)(F)F)cc1,–,active: 20.6 µM
CCCCn1nnnc1NCc1ccc(C)cc1,inactive: 3.86%,–
Cc1ccc(C(C)C)c(OCC(=O)Nc2cccc(-c3nc4ncccc4o3)c2)c1,–,"inconclusive: 29.1 µM [cytotoxic, single point]"
CCN1CCCC1CN(Cc1cc2ccc(C)cc2[nH]c1=O)C(=S)Nc1cccc(OC)c1 (stereo unspecified),inactive: 3.01%,–
O=C(c1cccs1)N1CCc2ccccc21,–,"inconclusive: 29.1 µM [cytotoxic, single point]"
COc1cccc(Oc2nc3c(c(=O)n(Cc4ccccc4Cl)c(=O)n3C)n2C)c1,–,"inconclusive: 6.51 µM [cytotoxic, full curve]"
O=C(CSc1nnc(CN2CCOCC2)n1-c1ccc(Cl)cc1)Nc1ccc2c(c1)OCO2,–,active: 10.3 µM
CCc1c(C(=O)NCc2ccccc2Cl)[nH]c(C)c1C(C)=O,–,active: 7.31 µM
CCOC(=O)c1cc(-c2ccccc2)n(CCC(=O)N2CCN(c3ccccn3)CC2)c1C,–,"inconclusive: 7.31 µM [cytotoxic, partial curve, poor fit]"
Cc1ccc(C(O)(C(=O)NNc2ccccn2)c2ccc(C)cc2)cc1,inactive: -27%,–
CCOc1ccc(NC(=O)N(Cc2ccc(CC)cc2)Cc2cn[nH]c2-c2ccc(OC)cc2)cc1,inactive: -9.91%,–
Cc1cc(N2CCN(c3cccc(C(F)(F)F)c3)CC2)n2nc(-c3ccccc3C)nc2n1,inactive: -0.0799%,–
C/C(=N\O)C(=O)OC1CC(C)CCC1C(C)C (stereo unspecified),inactive: -1.11%,–
CN(C)N=Nc1nc[nH]c1C(N)=O,–,"inconclusive: 18.4 µM [cytotoxic, single point]"
O=C1CN(C(=O)c2ccc(Br)o2)C(c2ccccc2)c2cc(F)ccc2N1 (stereo unspecified),inactive: 21.1%,–
COc1ccc(-c2nnc(-c3cc(OC)c(OC)c(OC)c3)o2)cc1OC,–,"inconclusive: 13 µM [cytotoxic, partial curve]"
CO[C@@]12[C@@H]3N[C@@H]3CN1C1=C(C(=O)C(N)=C(C)C1=O)[C@@H]2COC(N)=O,–,"inconclusive: 0.058 µM [cytotoxic, full curve, poor fit]"
Cn1cc(C(=O)CCl)c2ccccc21,–,"inconclusive: 16.4 µM [cytotoxic, single point]"

# Complete entries, quoted from the list. Order of values: activity change, negative = cytotoxicity | Potency
# O=C(c1cccs1)N1CCc2ccccc21 as listed: – | inconclusive: 29.1 µM [cytotoxic, single point]
# CCOC(=O)c1cc(-c2ccccc2)n(CCC(=O)N2CCN(c3ccccn3)CC2)c1C as listed: – | inconclusive: 7.31 µM [cytotoxic, partial curve, poor fit]
